# According to PubChem BioAssay AID1508600 (Functional Genomics Laboratory (NCATS/FGL), 2020):
# In all, about 53,000 sequences went through this assay and about 3,700 (7%) were called active.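 Rule for the calls: active = gene knockdowns whose robust z-score for IL-1 alpha signal is at least 2 or at most -2, so actives lie on both sides; inactive = the rest.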 This is one part of the list.
# Experiment: Components of the Cytosolic LPS Sensing Pathway: Gene Identification via Genome-wide siRNA Screen;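 note: robust z of the log signal after scaling to non-targeting control siRNA wells of the plate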
# Conditions: RAW264.7 macrophages, IL-1a HTRF, actives lie on both sides, screened at 100 nM (by protocol), cells primed 5 h with Pam3CSK4 first
# How it was run: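 RAW264.7 mouse macrophages reverse-transfected with single siRNAs (100 nM final) for 48h, primed with Pam3CSK4 for 5 hours, then transfected with LipidA for 24 hour. Supernatant IL-1a read by HTRF; values normalized to negative-control median, log-transformed robust z-scores.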
row,Sequence,z-score
1,GGGCAAGCCACUCAUGUUGTT against Me2,inactive: -0.997
2,GGCCAAUAGGACAUAUCUATT against Qprt,inactive: -0.443
3,GCAUAAAAAACGAAUAGAGTT against Smc1b,inactive: -0.432
4,GGAGGUUGAAGUGCAGGAATT against Mab21l1,inactive: 1.41
5,GCUUUUGUGUCAUGUUGCATT against Ncdn,inactive: -1.09
6,CCAUUUUAACCAAUGGUGUTT against Olfr572,inactive: -1.06
7,GGAGACCACAGACCUCAAATT against Fcgrt,inactive: -0.593
8,CCUACCUCCUGAAUUUAUUTT against Cnot11,inactive: -0.11
9,CCAGAAUCGAAAUAACCAGTT against Rpgrip1,inactive: 0.822
10,GGUACAAGGUGAAGACUUCTT against Reg3a,inactive: 1.48
11,CCUACUCAAGAAGCUCAGUTT against Hpse,active: -2.47
12,GGACAAGAAUUGGAACAAATT against Zfp84,inactive: 1.43
13,GCAUCUCCUGCCAAAGCAGTT against Ms4a2,inactive: -0.381
14,GCCUACAAAACAACACUACTT against BC048562,inactive: -0.0074
15,GGUAUACAAUCCUUACCGUTT against Cyp4f39,inactive: 0.565
16,GGCGGACUUGGAUUACAGCTT against Rassf10,active: 2.21
17,GGACUGAAAGAAAUCAGAATT against Asxl2,inactive: 0.434
18,GGUGUUGGAAACAAUCAGATT against Cd59a,inactive: 1.21
19,GCGGGAACCAUUUUUGUGATT against Cdh11,inactive: -1.18
20,GACUCUGCUUUUUGUGUUATT against Olfr958,inactive: 1.05
21,GGAAAAGAUGAAGACUACATT against Ifnar2,inactive: -0.636
22,GGGAAACAAGCAUCUUCUGTT against Bmp5,inactive: -0.474
23,GGGCAACUUCCUCAGACAUTT against Cav2,inactive: 0.245

row,Sequence,z-score
1,GGAAUCAUCGGUUCUGUGUTT against Cldn16,inactive: -0.589
2,GCACAUUUAUCCCGGUGUATT against Pnpla2,active: -2.01
3,GGCCGAUGAUAAAAAUGAATT against Cnga1,inactive: -0.0836
4,CGUCUACUUCGUACAAAUGTT against Slc22a14,inactive: 0.0893
5,GCCACCUAAUUGAUUUCCGTT against Ggt7,inactive: 0.0552
6,GGGUUUGACCUGAUUUCUCTT against Col9a1,inactive: 0.305
7,GAUUUUUCAAAUCUUUGGCTT against Plac8,inactive: -1.52
8,UAAGUGUUGUCUUCCUUUUTT against Olfr1360,inactive: 0.658
9,CGGGAAGCUUUCCUAAACUTT against Serpinb9d,inactive: 0.497
10,GGAAAAUGUUUGGACUUUGTT against Cnep1r1,inactive: -0.0623
11,GGUGAUGGAAGAAAAUACCTT against Pcdhb22,inactive: 1.83
12,GGAACUAGAACCAGAGUCCTT against Mrpl54,inactive: -0.0282
13,GCUCUAAUCAAUCAGUUAATT against Lnpep,inactive: -0.294
14,GGUCAGUUCCUAGCUUCACTT against Gucy1b2,inactive: -0.715
15,CGGCAUUUGCUAAUGGUCGTT against Actl6a,active: -2.79
16,GGAUCCCAGAUUGAAAACUTT against Rnf5,inactive: -0.92
17,GCUGUACGUGCUUGGUUAGTT against Isl1,inactive: -0.456
18,GGAAGAUGAUUUCUCCUUCTT against 2900026A02Rik,inactive: 0.471
19,GGCCAUCUUCCUGUUUGUGTT against Gabarapl2,inactive: 0.196
20,GGCACACAAAAGAAUACCUTT against Sobp,inactive: -0.501
21,GGAGACUUUGUCGUGUUUATT against Supt20,inactive: -0.106
22,GGCUUUUGUCAAGCAGCACTT against Ins2,inactive: -0.628
23,GGCUCUGCUGAAUAACCUGTT against Gcnt3,inactive: -1.45

row,Sequence,z-score
1,GGAGAAAGACAACUUCCUATT against Clec7a,inactive: 0.239
2,GGAAAUGUGGAGCUCAACGTT against Smap2,inactive: -0.618
3,CCAAGUUCACAAUUGUUCUTT against Gimap8,inactive: -0.263
4,GCCCUCAUUUGUCCUACAUTT against Arhgef2,inactive: 0.202
5,GCAGUCAUGAGAAAUACUATT against Irak1,inactive: -0.0477
6,GGAUCUAUUUGGCAGAUUUTT against Pabpc6,inactive: 1.09
7,GCUAUUUCAGGCACAAUAATT against Srprb,inactive: 0.287
8,GGGAGCCAGGAGAAGUUGUTT against Spin1,inactive: 0.814
9,GGCAUGGAGAGGAACUUCUTT against Siglec1,inactive: -1.55
10,GGUUCACACCAAAGAGCAGTT against Zkscan6,inactive: 0.909
11,CGACCAAUGGGACAAUGCATT against Prss12,inactive: 0.914
12,GGAUAACAGCACUUUCCAGTT against 2700062C07Rik,inactive: 0.344
13,GGUAAAAUGGAACUACAUGTT against Igf2bp3,inactive: 0.23
14,CCGUUACCUUUUAAGCCUGTT against Socs6,inactive: -1.2
15,GGUCAUGGAUGUGCACGAUTT against Krt14,active: -2.21
16,GGACUUUUUAUACUGUGGATT against Septin2,inactive: -0.381
17,GGCUAAGAUUCAGGUCUUUTT against Crygs,inactive: -0.0763
18,GGAUUGAGCAGUGUCUAGUTT against Otos,inactive: -0.684
19,CCUUAUGUGCACUAUAGCCTT against 1700028K03Rik,inactive: -0.236
20,GCAUAUGCUUUUACAACACTT against Zfp280c,inactive: 0.252
21,CGCGCAGUUUGAAAACUAUTT against Septin8,inactive: 0.705
